In publication PMC7819943, “Rice protein-binding microarrays: a tool to detect cis-acting elements near promoter regions in rice”:
The list shows a part of the results.

Chains of the proteins cited; added tags and fusions are not shown.
UniProt Q0JBA9, entry or part of it: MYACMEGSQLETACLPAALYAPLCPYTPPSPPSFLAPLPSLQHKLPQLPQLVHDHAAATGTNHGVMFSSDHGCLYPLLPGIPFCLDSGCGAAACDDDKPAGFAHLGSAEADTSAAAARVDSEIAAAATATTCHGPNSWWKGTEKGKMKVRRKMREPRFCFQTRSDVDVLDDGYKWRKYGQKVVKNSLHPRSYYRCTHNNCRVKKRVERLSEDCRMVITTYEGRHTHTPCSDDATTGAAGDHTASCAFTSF

Target: OsWRKY34 (Oryza sativa, UniProt Q0JBA9 1-250)
Assay: protein-binding microarray (RPBM); PBS, 2% BSA, 51.3 ng/ul salmon testes DNA, 50 uM zinc acetate, 200 nM TF, 25 C, 1 h; high values mean tight binding
Conditions: protein: recombinant; tags: N-terminal polyhistidine and DsRed monomer fusion (pET32a); label: CyDye5-dUTP incorporated in the synthesized complementary strand; 3' TTTTT single-stranded linker to array surface; dsDNA, one strand shown
Summary of the method: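 Per-feature fluorescence intensity (arbitrary units), read on an Axon 4000B scanner, is the binding signal. Transcription factors carrying an N-terminal polyhistidine tag and DsRed fusion were expressed in E. coli BL21-CodonPlus and purified on Ni–NTA. A custom Agilent array, made double-stranded by primer extension with Cy5-dUTP and blocked with 2% BSA, was incubated with 200 nM protein in PBS, 2% BSA, salmon testes DNA and 50 µM zinc acetate at 25 °C for 1 h and then washed.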

Row | Sequence | binding signal
1 | TTTTTTGGTTTTCTTATAGAATCGGATCTATGTTTTTTTTCGGAGTCACCTAGTGCAG | 9770 fluorescence intensity (a.u.)
2 | ACCTGGTACGCATGAATCCTGCGACCATATTGTTTACCTCCGGAGTCACCTAGTGCAG | 9990 fluorescence intensity (a.u.)
3 | ATCTATCATTTATGTTTTTAACATATGACTTGTTCAGTCCCGGAGTCACCTAGTGCAG | 8370 fluorescence intensity (a.u.)
4 | ATAGTTTTTTTTTTCTGTTCTGTTTTTGGCGATTGTTTTCCGGAGTCACCTAGTGCAG | 8120 fluorescence intensity (a.u.)
5 | CTCTCAACTTGTTGCCCATTTCTTCTTCGTCGTTGCCCGTCGGAGTCACCTAGTGCAG | 8340 fluorescence intensity (a.u.)
6 | CCTCTAGACCCTTAGGAAAACCCTTCTTTTCGTGCTTCCCCGGAGTCACCTAGTGCAG | 8160 fluorescence intensity (a.u.)
7 | TCCCTAGCAATATACTCTGCTTTGCTTTTCCTTGACTTTCCGGAGTCACCTAGTGCAG | 9600 fluorescence intensity (a.u.)
8 | GCCGACTCTTACTCCTCCGCCCACTCACCACGCGCGCTGCCGGAGTCACCTAGTGCAG | 11000 fluorescence intensity (a.u.)
9 | GCACTTCCATCGATCTCTCTCCTCGCCACGGGCCACGGCCCGGAGTCACCTAGTGCAG | 10500 fluorescence intensity (a.u.)
10 | CCTCTCATTTTAAATGTATTTGTGGTTTGTATATCCAACACGGAGTCACCTAGTGCAG | 10700 fluorescence intensity (a.u.)
11 | CCCCGCCCGCACCACCGTTTCCTTTTCCAACGACTTCTTCCGGAGTCACCTAGTGCAG | 10700 fluorescence intensity (a.u.)
12 | CCGCCGCCGCCTCCTCACCCGCTGCGCGCTCGCCGCCGTGCGGAGTCACCTAGTGCAG | 8850 fluorescence intensity (a.u.)
13 | GACGATATGTAACACCCTCGTCACATTTACCATTTATACACGGAGTCACCTAGTGCAG | 8270 fluorescence intensity (a.u.)
14 | CTCGACCGCCGCTGCCTCCTCGCCGCCCTCGACCGCCGACCGGAGTCACCTAGTGCAG | 12100 fluorescence intensity (a.u.)
15 | GCAGCATCACCCGCAGCCGCCGCCGCCGCCGCCATGGACTCGGAGTCACCTAGTGCAG | 10100 fluorescence intensity (a.u.)
16 | TATATCGAAGCAAATTCCCACCATAGATTTTACCTTACCTCGGAGTCACCTAGTGCAG | 8240 fluorescence intensity (a.u.)
17 | ATCTGTTTTTTTTTTCTGAAGAGAAGCATATACTTATTTCCGGAGTCACCTAGTGCAG | 9500 fluorescence intensity (a.u.)
18 | ACCGACGAATCCCGGCACATCACCGTCACATGGCCATACCCGGAGTCACCTAGTGCAG | 10000 fluorescence intensity (a.u.)
19 | TTAGTTTGCATCATTGCAGTGCATGTACCTTCCAGAGCTACGGAGTCACCTAGTGCAG | 8600 fluorescence intensity (a.u.)
20 | ACCTAATCCCACAGCTGGTCGCGACGTGGTCTGAAAACGTCGGAGTCACCTAGTGCAG | 8320 fluorescence intensity (a.u.)
21 | TGGTGGTGGTGGGGAGCGGCCTTTATCCGTGGCGTTGGCACGGAGTCACCTAGTGCAG | 15000 fluorescence intensity (a.u.)
22 | TCAGCTCTACTACACTGCTAACCTCTCCGGTCATAAGTGCCGGAGTCACCTAGTGCAG | 10000 fluorescence intensity (a.u.)
23 | GACTCAACTTGTCCAACAATATATGGCCTTTTAAGTTTTTCGGAGTCACCTAGTGCAG | 8980 fluorescence intensity (a.u.)
24 | CCTCCCTTGTTTTCTGTACCAATACGTGATGCACCGGTCTCGGAGTCACCTAGTGCAG | 8440 fluorescence intensity (a.u.)
25 | GAGTGGGTGTGGGTTTTCTAGTGGGCAGATTTAGTTTTAACGGAGTCACCTAGTGCAG | 17200 fluorescence intensity (a.u.)
26 | ATTTCGTTTCTTTCTTTCTTTTTCTTCTTTTAAAAGGGACCGGAGTCACCTAGTGCAG | 9130 fluorescence intensity (a.u.)
27 | TTTCTTTATGTCAGTCCTCTTTTGGTAGCAATTTTACTGGCGGAGTCACCTAGTGCAG | 8980 fluorescence intensity (a.u.)

Another view of some results above.
Row	Sequence	binding signal
1	TTTTTTGGTTTTCTTATAGAATCGGATCTATGTTTTTTTTCGGAGTCACCTAGTGCAG	9770 fluorescence intensity (a.u.)
21	TGGTGGTGGTGGGGAGCGGCCTTTATCCGTGGCGTTGGCACGGAGTCACCTAGTGCAG	15000 fluorescence intensity (a.u.)

Additional results follow:

Row | Sequence | binding signal
28 | AGCTAGGAAGAATCTCGCCTTTACATCGCAGTCCAATTCTCGGAGTCACCTAGTGCAG | 10500 fluorescence intensity (a.u.)
29 | TCGATATAGGTTTTGTGGTTGGAGGATATGGATCATACTCCGGAGTCACCTAGTGCAG | 8350 fluorescence intensity (a.u.)
30 | CTTTGGGTACTTTGCCGCTCGCACTTCTTTTGCACAGCTCCGGAGTCACCTAGTGCAG | 13800 fluorescence intensity (a.u.)
31 | AATGTATTTTACTCTTTTAATGCACTACTGTTTCTTTTTTCGGAGTCACCTAGTGCAG | 8480 fluorescence intensity (a.u.)
32 | AACCTACTATTAGCCCGTCCAGGTCATCACAATCTGAGCTCGGAGTCACCTAGTGCAG | 10000 fluorescence intensity (a.u.)
33 | GCTTCTGTTAACCCTTAGTATGACCTCATTGTTGTCCGTCCGGAGTCACCTAGTGCAG | 11000 fluorescence intensity (a.u.)
34 | GACTGTAAATTGTTGTTTCTTTTTTTTTTTCATATTTTTTCGGAGTCACCTAGTGCAG | 12900 fluorescence intensity (a.u.)
35 | CCGTTCACATCATTTACACAGTATCTCAACATATATCCATCGGAGTCACCTAGTGCAG | 8400 fluorescence intensity (a.u.)
36 | GCTGGTGCGGGTGCCCGTCGTGTGTGTGTTTCGTTGCTGCCGGAGTCACCTAGTGCAG | 9850 fluorescence intensity (a.u.)
37 | CACTAAAGTCAAACCCCATGTGTAACTGCTCACACTCTTTCGGAGTCACCTAGTGCAG | 10300 fluorescence intensity (a.u.)
38 | AATAGCAGCTCTCTCCAGGTTACTACTCCTGTTACTAACCCGGAGTCACCTAGTGCAG | 8540 fluorescence intensity (a.u.)
39 | GTGGCCGGAGCCATGGGAGGGAGGGGTGGCAGTTGTCGGACGGAGTCACCTAGTGCAG | 13200 fluorescence intensity (a.u.)
40 | TTTATTTTTCGTAAAATGTTCCCTTACATTATTCCCATGTCGGAGTCACCTAGTGCAG | 9390 fluorescence intensity (a.u.)
41 | TCTCCACTTAAATACTATGTTTCCCTATTTTTTCACTCTCCGGAGTCACCTAGTGCAG | 8310 fluorescence intensity (a.u.)
42 | CTTTTATTTTTGTGGTTAGTGTACCTTTTTTTGCTAATATCGGAGTCACCTAGTGCAG | 12900 fluorescence intensity (a.u.)
43 | CTTGTTTTAGAGTACTGAGAGTTAGCTGTTGACCATCTACCGGAGTCACCTAGTGCAG | 9390 fluorescence intensity (a.u.)
44 | TCCCCTCTCTGTTGTCATCGTCTTCCTTTCCTTTCCTTTCCGGAGTCACCTAGTGCAG | 8230 fluorescence intensity (a.u.)
45 | GAGTAGTTCGCTTTGGCAGTATGGCATTTGTACACGCTCACGGAGTCACCTAGTGCAG | 8660 fluorescence intensity (a.u.)
46 | TGGTTTGGTTTGGTTCTTTGTTGTTGCTGCCGCTGCCGCGCGGAGTCACCTAGTGCAG | 31400 fluorescence intensity (a.u.)
47 | TCTAAATCTTGTCGCATCACATTCAGATTCCATCTTTTTCCGGAGTCACCTAGTGCAG | 9540 fluorescence intensity (a.u.)
48 | TCTTTTCTTTGCCGCGTGCGTTCCTCTCCTCAGGTGGTGACGGAGTCACCTAGTGCAG | 8980 fluorescence intensity (a.u.)
49 | GCTTCCGCCGCCGCGTCTTCTCGCCCTCGACTCCGCTCTCCGGAGTCACCTAGTGCAG | 14700 fluorescence intensity (a.u.)
50 | ATTTTTGTCTTGAGTTAACACCGTCACGTTGCCTTCACGGCGGAGTCACCTAGTGCAG | 9960 fluorescence intensity (a.u.)
51 | ACGCTTTCCTGTGCTCTTTCTCGGTTATTAATATTTTCTCCGGAGTCACCTAGTGCAG | 10100 fluorescence intensity (a.u.)
52 | ACGCTCAATTATTCCGTGGCCACTAAGCTAAGCAACTCTGCGGAGTCACCTAGTGCAG | 8630 fluorescence intensity (a.u.)
53 | AATTGGCCCTACCATATTCTTTTCTCAACTGCATAATCCTCGGAGTCACCTAGTGCAG | 11500 fluorescence intensity (a.u.)
54 | GACAAACCCTGGTTTCCGTGTCCAACGTTTGACCGTCCGTCGGAGTCACCTAGTGCAG | 9830 fluorescence intensity (a.u.)
